The record followed here is article PMC5355268.

The chains behind the UniProt entries cited, without tags or fusion partners. Where a name states a change or a piece, a line headed by the entry shows the natural chain unless it says otherwise.
UniProt Q9UKL0: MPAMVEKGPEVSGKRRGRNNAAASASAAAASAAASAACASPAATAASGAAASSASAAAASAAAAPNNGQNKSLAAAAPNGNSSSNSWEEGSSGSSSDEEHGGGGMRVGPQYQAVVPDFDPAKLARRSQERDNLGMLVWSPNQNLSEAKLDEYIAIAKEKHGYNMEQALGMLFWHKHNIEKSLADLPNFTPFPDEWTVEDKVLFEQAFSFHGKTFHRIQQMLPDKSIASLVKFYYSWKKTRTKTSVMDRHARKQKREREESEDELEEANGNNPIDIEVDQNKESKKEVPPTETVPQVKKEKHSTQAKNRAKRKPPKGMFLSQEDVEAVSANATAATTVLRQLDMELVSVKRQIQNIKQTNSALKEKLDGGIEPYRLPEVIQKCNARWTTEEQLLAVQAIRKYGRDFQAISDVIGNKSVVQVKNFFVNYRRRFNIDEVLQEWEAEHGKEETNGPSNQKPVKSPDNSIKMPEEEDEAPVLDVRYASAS
UniProt P03129: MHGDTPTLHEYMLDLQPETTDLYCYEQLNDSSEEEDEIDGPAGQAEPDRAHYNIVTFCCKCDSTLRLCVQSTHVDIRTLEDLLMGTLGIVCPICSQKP

No constants are given. Whether binding was seen depends on the method and setting. Binding seen in cells or lysates may run through a third protein. Some entries that bind do so weakly or less than the wild type.

In this assay the target is Co-REST (human (endogenous in C33A)) (UniProt Q9UKL0). Description: co-IP; C33A cells; immunoprecipitation with an antibody against LSD1 or Co-REST, immunoblotting with an antibody against HPV16 E7; protocol only by reference [58]. On the technique in general: A western blot detects proteins with antibodies after separation by electrophoresis.

As for HPV16 E7 (from UniProt P03129 1-98), the binding entry is “binds”.
